EP4610267A1, “CYCLIC DINUCLEOTIDES AND CONJUGATES THEREOF WITH ANTIBODIES” (priority 2024, dated 2025)

Assay: Compound-to-antibody ratio (DAR) of antibody CDN conjugates by LC-MS
Procedure: Antibody CDN-conjugates were analyzed to determine the extent of conjugation. A compound-to-antibody ratio was extrapolated from LC-MS data for reduced samples. LC-MS allows quantitation of the average number of molecules of linker-payload attached to an antibody in a conjugate sample. Mass spectral data enables identification of the component species in the mixture, e.g., LC, LC+1, LC+2, HC, HC+1, HC+2, etc. From the average loading on the LC and HC chains, the average compound to antibody ratio can be calculated for an antibody conjugate. A compound-to-antibody ratio for a given conjugate sample represents the average number of compound (linker-payload) molecules attached to a tetrameric antibody containing two light chains and two heavy chains. The samples were reduced with 40 mM TCEP or 5.5 mM DTT, injected onto a MassPREP Micro Desalting column (20 µm, 5-mm by 2.1-mm ID, Waters) equilibrated in 0.1% formic acid (FA) in H2O and eluted by a fast gradient (4min) to 0.1% FA in acetonitrile. The separation was carried out by AQUITY UPLC I-Class system (Waters) and was on-line coupled to Mass Spectrometer Synapt G2 (Waters) to acquire mass spectra using electrospray ionization in positive mode. The TOF mass range was set from m/z 500 to 4000. The raw spectrum was subtracted and deconvoluted (MaxEnt 1, Waters) to produce the final spectrum. Conjugates were profiled using analytical size-exclusion chromatography on Superdex 200 equilibrated in PBS pH7.4; aggregation was analyzed based on analytical size exclusion chromatography.

[1] = compound conjugated to anti TROP2 mA5 via engineered cysteines (light chain V110C, heavy chain S375C)
[2] = compound conjugated to isotype mAb (Table 19)

Row | Substance | Drug Antibody Ratio [1] | Drug Antibody Ratio [2]
1 | 4-((S)-2-((S)-2-(2-(2,5-dioxo-2,5-dihydro-1H-pyrrol-1-yl)acetamido)-3-methylbutanamido)-5-ureidopentanamido)benzyl (2-(((9-((6R,8R,9S,13aR,15R,16R,16aR,17R)-16,17-difluoro-3,11-dimercapto-3,11-dioxido-8-(6-oxo-1,6-dihydro-9H-purin-9-yl)decahydro-6,9-methanofuro[3,2-m][1,3,6,9,12]pentaoxa[2,10]diphosphacyclopentadecin-15-yl)-9H-purin-6-yl)carbamoyl)oxy)ethyl)(methyl)carbamate [Compound 3.3] | 3.7 | 3.8
2 | 4-((S)-2-((S)-2-(2-(2,5-dioxo-2,5-dihydro-1H-pyrrol-1-yl)acetamido)-3-methylbutanamido)-5-ureidopentanamido)benzyl (9-((6R,8R,9S,13aR,15R,16R,16aR,17R)-16,17-difluoro-3,11-dimercapto-3,1 1-dioxido-8-(6-oxo-1,6-dihydro-9H-purin-9-yl)decahydro-6,9-methanofuro[3,2-m][1,3,6,9,12]pentaoxa[2,10]diphosphacyclopentadecin-15-yl)-9H-purin-6-yl)carbamate [Compound 3.13] | 3.3 | 3.8
